PMC6429502, “Synthesis and AChE-Inhibitory Activity of New Benzimidazole Derivatives” (Molecules, 2019)

The chains behind the UniProt entries cited, without tags or fusion partners. Residues count along the entry.
UniProt O42275, 24-633 limits assumed: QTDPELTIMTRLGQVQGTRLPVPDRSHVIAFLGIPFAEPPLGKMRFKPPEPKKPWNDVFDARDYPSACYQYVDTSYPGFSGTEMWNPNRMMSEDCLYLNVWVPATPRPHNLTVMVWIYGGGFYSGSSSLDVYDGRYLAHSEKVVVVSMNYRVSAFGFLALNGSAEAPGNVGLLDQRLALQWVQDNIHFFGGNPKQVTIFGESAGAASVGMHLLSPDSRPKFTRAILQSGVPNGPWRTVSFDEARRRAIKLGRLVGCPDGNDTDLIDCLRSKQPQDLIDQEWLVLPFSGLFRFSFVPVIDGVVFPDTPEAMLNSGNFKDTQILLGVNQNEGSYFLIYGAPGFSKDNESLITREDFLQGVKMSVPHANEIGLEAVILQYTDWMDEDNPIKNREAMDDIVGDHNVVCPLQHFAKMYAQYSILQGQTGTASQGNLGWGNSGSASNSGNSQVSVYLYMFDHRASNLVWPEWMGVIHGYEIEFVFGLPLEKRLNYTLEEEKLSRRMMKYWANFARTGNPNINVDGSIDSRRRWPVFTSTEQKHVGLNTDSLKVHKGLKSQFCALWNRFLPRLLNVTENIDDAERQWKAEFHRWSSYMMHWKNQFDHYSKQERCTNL

Biological target: AChE (Electrophorus electricus, UniProt O42275)
Details: 10^−4 M

| Structure (SMILES) | % Inhibition AChE |
| --- | --- |
| Cn1c(SCC(=O)c2ccc(O)c(O)c2)nnc1-c1ccc(-c2nc3cc(F)ccc3[nH]2)cc1 [3l, 2-(4-(4-Methyl-5-(2-(3,4-dihydroxyphenyl)-2-oxo-ethylthio)-4H-1,2,4-triazol-3yl)-phenyl)-5(6)-fluoro-1H-benzimidazole] | more than 50% and 83.20 ± 1.13% |
| CCn1c(SCC(=O)c2ccc(O)c(O)c2)nnc1-c1ccc(-c2nc3cc(F)ccc3[nH]2)cc1 [3p, 2-(4-(4-Ethyl-5-(2-(3,4-dihydroxyphenyl)-2-oxo-ethylthio)-4H-1,2,4-triazol-3yl)-phenyl)-5(6)-fluoro-1H-benzimidazole] | more than 50% and 81.25 ± 1.88% |

Some entries of the source have several records that differ or are many. The other results are left out here. An entry can have further records. The values listed for one entry differ for a reason that is not stated; dose, time, organism, isomer or construct need not be as stated for each record.
